According to the supplement of paper PMC6078165:
Values are relative to the signal before dosing, not to a vehicle control; the signal also falls without drug.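 Fibroblast labels denote human fibroblasts, mainly primary ones from uterus (C12385, HUF), lung (H6013), bone (Hs27A), adrenal (HADF) and skin (WS1), plus mammary HMF and breast cancer-associated Hs343T. Cancer cells are basal-like or mesenchymal-like triple-negative breast cancer lines. A hit is a response shift exceeding 3x replicate standard deviation. The tissue of the other fibroblasts is not given here.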

Test system: Hs578T
Assay: relative JC-1 red fluorescence (viability) vs pre-drug, coculture with fibroblast (fraction); higher = more viable cancer cells
Description: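 JC-1 labelled TNBC cells cocultured 1:1 (1,500 cells each) with CellTrace Violet stained primary or stromal fibroblasts in 384-well plates in FluoroBrite medium, treated with one of 42 anticancer drugs at 0.1, 1, 10 or 100 uM. JC-1 red fluorescence (mitochondrial integrity in cancer cells only) was read by plate reader every 8 h for 72 h. Values are normalised to each well's pre-drug value. The stock of one drug was tenfold lower, so its dose labels may be too high.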

CCCCCOC(=O)Nc1nc(=O)n([C@@H]2O[C@H](C)[C@@H](O)[C@H]2O)cc1F [Capecitabine]
relative JC-1 red fluorescence
Settings | 8 h | 16 h | 24 h | 32 h | 40 h | 48 h | 56 h | 64 h | 72 h
10 µM | 0.912 | 0.801 | 0.735 | 0.6983 | 0.6382 | 0.5996 | 0.573 | 0.53 | 0.516
100 µM | 0.92 | 0.809 | 0.758 | 0.714 | 0.658 | 0.621 | 0.594 | 0.554 | 0.535

relative JC-1 red fluorescence
Settings | 8 h | 16 h | 24 h | 32 h | 40 h | 48 h | 56 h | 64 h | 72 h
10 µM, coculture fibroblast: C12385 | 0.862 | 0.708 | 0.6621 | 0.5836 | 0.526 | 0.486 | 0.453 | 0.443 | 0.425
10 µM, coculture fibroblast: H6013 | 0.834 | 0.743 | 0.681 | 0.637 | 0.6 | 0.583 | 0.563 | 0.558 | 0.526
10 µM, coculture fibroblast: H6019 | 0.786 | 0.695 | 0.645 | 0.554 | 0.512 | 0.482 | 0.449 | 0.424 | 0.398
10 µM, coculture fibroblast: H6076 | 0.94 | 0.861 | 0.796 | 0.772 | 0.722 | 0.715 | 0.685 | 0.679 | 0.6716
10 µM, coculture fibroblast: H6231 | 0.9306 | 0.84 | 0.737 | 0.687 | 0.613 | 0.578 | 0.528 | 0.502 | 0.478
10 µM, coculture fibroblast: HADF | 0.9074 | 0.8065 | 0.7331 | 0.6906 | 0.66 | 0.63 | 0.594 | 0.5789 | 0.5496
10 µM, coculture fibroblast: HCFa | 0.862 | 0.755 | 0.68 | 0.601 | 0.534 | 0.502 | 0.468 | 0.451 | 0.424
10 µM, coculture fibroblast: HCPF | 0.9254 | 0.822 | 0.7572 | 0.727 | 0.657 | 0.624 | 0.6 | 0.558 | 0.538
10 µM, coculture fibroblast: HHSteC | 0.887 | 0.805 | 0.7549 | 0.7192 | 0.667 | 0.6384 | 0.6169 | 0.592 | 0.552
10 µM, coculture fibroblast: HMF | 0.9342 | 0.858 | 0.784 | 0.752 | 0.688 | 0.658 | 0.606 | 0.571 | 0.548
10 µM, coculture fibroblast: HPFa | 0.908 | 0.812 | 0.7403 | 0.676 | 0.623 | 0.581 | 0.537 | 0.509 | 0.462
10 µM, coculture fibroblast: HUF | 0.883 | 0.731 | 0.704 | 0.615 | 0.5489 | 0.5136 | 0.479 | 0.46 | 0.445
10 µM, coculture fibroblast: Hs27A | 0.915 | 0.856 | 0.796 | 0.751 | 0.697 | 0.672 | 0.633 | 0.618 | 0.565
10 µM, coculture fibroblast: Hs343T | 0.978 | 0.823 | 0.737 | 0.695 | 0.609 | 0.566 | 0.516 | 0.478 | 0.459
10 µM, coculture fibroblast: WS1 | 0.832 | 0.698 | 0.614 | 0.527 | 0.467 | 0.433 | 0.401 | 0.382 | 0.365
100 µM, coculture fibroblast: C12385 | 0.859 | 0.751 | 0.692 | 0.63 | 0.572 | 0.542 | 0.514 | 0.495 | 0.4771
100 µM, coculture fibroblast: H6013 | 0.899 | 0.831 | 0.79 | 0.774 | 0.745 | 0.744 | 0.726 | 0.716 | 0.688
100 µM, coculture fibroblast: H6019 | 0.759 | 0.6902 | 0.696 | 0.612 | 0.582 | 0.562 | 0.54 | 0.525 | 0.502
100 µM, coculture fibroblast: H6076 | 0.968 | 0.878 | 0.827 | 0.806 | 0.759 | 0.747 | 0.726 | 0.708 | 0.704
100 µM, coculture fibroblast: H6231 | 0.9066 | 0.8245 | 0.762 | 0.737 | 0.684 | 0.662 | 0.626 | 0.597 | 0.584
100 µM, coculture fibroblast: HADF | 0.9176 | 0.847 | 0.792 | 0.755 | 0.71 | 0.68 | 0.636 | 0.609 | 0.568
100 µM, coculture fibroblast: HCFa | 0.901 | 0.832 | 0.787 | 0.758 | 0.703 | 0.681 | 0.649 | 0.623 | 0.586
100 µM, coculture fibroblast: HCPF | 0.934 | 0.844 | 0.81 | 0.781 | 0.733 | 0.712 | 0.709 | 0.666 | 0.639
100 µM, coculture fibroblast: HHSteC | 0.909 | 0.8369 | 0.7939 | 0.758 | 0.719 | 0.7006 | 0.6763 | 0.6552 | 0.62489
100 µM, coculture fibroblast: HMF | 0.912 | 0.8175 | 0.767 | 0.74 | 0.683 | 0.656 | 0.635 | 0.606 | 0.589
100 µM, coculture fibroblast: HPFa | 0.9539 | 0.8631 | 0.8259 | 0.7841 | 0.756 | 0.732 | 0.698 | 0.683 | 0.6476
100 µM, coculture fibroblast: HUF | 0.9238 | 0.783 | 0.799 | 0.708 | 0.665 | 0.639 | 0.61 | 0.595 | 0.585
100 µM, coculture fibroblast: Hs27A | 0.9111 | 0.875 | 0.8364 | 0.811 | 0.773 | 0.758 | 0.727 | 0.721 | 0.667
100 µM, coculture fibroblast: Hs343T | 0.925 | 0.802 | 0.774 | 0.757 | 0.704 | 0.683 | 0.66 | 0.626 | 0.614
100 µM, coculture fibroblast: WS1 | 0.8072 | 0.717 | 0.676 | 0.601 | 0.537 | 0.519 | 0.494 | 0.483 | 0.468
